Source: PubChem BioAssay AID2685 (National Center for Advancing Translational Sciences (NCATS), 2010)
The campaign covered roughly 320,000 compounds. About 2,100 (0.66%) were called active. The shares of active, inactive and inconclusive entries below differ from those in the screen. Calls come from the whole dose curve; as a rule, active = well fitted inhibition curve with a large enough effect in the signal ratio, with a control signal flat (not every such curve was filed as active); inconclusive = small, poorly fitted or top-dose-only effect, or effect the other way, or a change in a side signal; inactive = flat fitted curve, though single readings scatter; the % refers to the signal ratio. Where the call is inconclusive, the potency comes from a doubtful curve fit.
% is set by controls: 0 for no effect and ±100 for the full control effect; potency is the fitted concentration of half-maximal effect.

Experiment: qHTS Assay for Lipid Storage Modulators in Drosophila S3 Cells
Settings: BODIPY lipid droplet fluorescence, 18-24 h, cells fed with added oleic acid; lipid storage change, negative = inhibition: at 46.1 µM (top of the series) unless noted
Outline: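 Drosophila S3 cells loaded with oleic acid (400 uM, as added) and compounds at several concentrations; lipid droplets imaged by 488-nm laser-scanning cytometry, 500–530 nm intensity and object ratio to cell channel. Percent activity normalized to 20 uM Triacsin C.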
In the case of COc1cc(OC)cc(C(=O)Nc2cc(-c3cn4cccnc4n3)ccc2C)c1, the lipid storage change, negative = inhibition is reported as inconclusive: -4.81% [at 9.22 µM].
In the case of Cn1c(CNC(=O)c2ccccc2F)cc2ccccc21, the Potency is reported as inconclusive: 6.51 µM [activator, single point].
In the case of CN(C)S(=O)(=O)N1CCC(Oc2cccc(C(=O)NCCC3=CCCCC3)c2)CC1, the lipid storage change, negative = inhibition is reported as inconclusive: -32.5%.
In the case of O=C(NC(=S)NCc1ccc2c(c1)OCO2)c1ccccc1, the lipid storage change, negative = inhibition is reported as inconclusive: 26.8%.
With COCCN(Cc1cc2cc3c(cc2nc1Cl)OCO3)C(=O)c1ccc(C)cc1 the lipid storage change, negative = inhibition was inconclusive: -27.2%.
With CCOc1ccc(NC(=O)CCS(=O)(=O)c2ccc3c(c2)CCCN3C(=O)CC)cc1 the lipid storage change, negative = inhibition was inconclusive: 80.5%.
With Nc1ccc2cn[nH]c2c1 the Potency was inconclusive: 2.06 µM [activator, full curve].
For Cc1cc(-n2nc3ccccc3n2)c(O)c([N+](=O)[O-])c1, the Potency was inconclusive: 29.1 µM [falling, single point].
With COc1ccc(/C=N/NC(=O)c2nn(C)cc2Br)cc1CSCc1ccco1 the lipid storage change, negative = inhibition was inconclusive: -42.3%.
With O=S(=O)(NCCc1ccccn1)c1cc(Cl)cc(Cl)c1O the lipid storage change, negative = inhibition was inconclusive: 2.6%.
For CCCn1c(N)c(C(=O)CSc2nnc(Cc3ccccc3)o2)c(=O)n(C)c1=O, the Potency was inconclusive: 23.1 µM [falling, single point].
With Nn1c(SCC(=O)NC2CCS(=O)(=O)C2)nc2scc(-c3ccccc3)c2c1=O (stereo unspecified) the Potency was inconclusive: 0.461 µM [falling, full curve, poor fit].
For COc1ccc(-n2nnnc2SCC(=O)Nc2ccccc2F)cc1, the lipid storage change, negative = inhibition was inconclusive: 22.3%.
With CCOC(=O)C1=C(C)Nc2nc(C)nn2C1c1ccc(C)cc1 (stereo unspecified) the lipid storage change, negative = inhibition was inconclusive: 18.8%.
For O=C(CN1CCN(C2CCCCC2)CC1)Nc1ccc(Br)cc1, the lipid storage change, negative = inhibition was inconclusive: -8.59%.
In the case of O=C(COC(=O)CCC(=O)c1ccc(F)cc1)Nc1ccc2[nH]c(=O)[nH]c2c1, the lipid storage change, negative = inhibition is reported as inconclusive: 20.3%.
For CC(C)(C)NC(=O)c1ccc(Cn2cc(C(F)(F)F)ccc2=O)cc1, the lipid storage change, negative = inhibition was inconclusive: 11.3%.
With COC(=O)[C@@]12CCCCN1[C@H](c1ccc(-c3ccc(OC)cc3)cc1)[C@@H]1C(=O)N(C)C(=O)[C@@H]12 the lipid storage change, negative = inhibition was “inactive”.
For Cc1cc(C)n2cc(CSc3nc4ccccc4[nH]3)nc2n1, the lipid storage change, negative = inhibition was inconclusive: 10.4%.
With Cc1noc(C)c1COc1cccc(C(=O)Nc2ccccc2)c1 the lipid storage change, negative = inhibition was inconclusive: 0.469%.
With CCOC(=O)CC(NC(=O)Cn1nnc(-c2ccccc2C)n1)c1ccc(OC)cc1 (stereo unspecified) the lipid storage change, negative = inhibition was inconclusive: 29.6%.
In the case of O=C(Nc1ccccc1)Nc1nnc(COc2ccccc2F)s1, the lipid storage change, negative = inhibition is reported as inconclusive: 26%.
For Fc1c(F)c(F)c(CSc2nc3ccccc3[nH]2)c(F)c1F, the Potency was inconclusive: 3.26 µM [rising, partial curve].
With CCOC(=O)C1CCCN(C(=O)COc2ccc(S(=O)(=O)N(CC)c3ccccc3)cc2)C1 (stereo unspecified) the lipid storage change, negative = inhibition was inconclusive: 3.61%.
With CCOC(=O)N1CCC(NC(=O)CCc2nc(-c3ccccc3F)no2)CC1 the lipid storage change, negative = inhibition was inconclusive: 240%.
In the case of CC(C)C(=O)NCc1cc(-c2ccc(Cl)cc2)no1, the lipid storage change, negative = inhibition is reported as inconclusive: 0.0498%.
In the case of COc1ccc(CN(Cc2ccccn2)S(=O)(=O)c2ccc(-n3cnnn3)cc2)cc1, the lipid storage change, negative = inhibition is reported as inconclusive: 4.66%.
For CCCCN(C)CCNC(=O)c1cn(C)c(=O)c2c1c1ccccc1n2C, the lipid storage change, negative = inhibition was inconclusive: 64.6%.
With COc1ccccc1NC(=O)C(C)OC(=O)/C(=C/c1ccccc1)NC(C)=O (stereo unspecified) the Potency was inconclusive: 6.51 µM [rising, single point].
For O=[N+]([O-])c1cccc(-n2nnnc2CN2CCCCCC2)c1, the lipid storage change, negative = inhibition was inconclusive: 14.8%.
For O=c1nc(NCc2ccco2)sc2ncccc12, the lipid storage change, negative = inhibition was inconclusive: -10.5%.
In the case of CCOCCOC(=O)C(C)Sc1n[nH]c(=O)[nH]c1=O (stereo unspecified), the lipid storage change, negative = inhibition is reported as inconclusive: -109%.
In the case of Cc1ccc(Nc2ncccc2C(N)=O)cc1[N+](=O)[O-], the lipid storage change, negative = inhibition is reported as inconclusive: 28.5%.
For CCOC(=O)c1oc2cc(O)ccc2c(=O)c1-c1ccc(OC)cc1, the lipid storage change, negative = inhibition was inconclusive: 77.4%.
For N/C(=N/OCc1cccc([N+](=O)[O-])c1)c1nonc1N, the lipid storage change, negative = inhibition was inconclusive: -3.78%.
With CCOC(=O)N1CCN(C2CC(=O)N(c3ccc(F)cc3)C2=O)CC1 (stereo unspecified) the lipid storage change, negative = inhibition was inconclusive: -7.45%.
In the case of COC(=O)C1=CN(c2ccc(F)c(F)c2)C=C(C(=O)OC)C1c1ccc([N+](=O)[O-])cc1, the Potency is reported as inconclusive: 0.058 µM [activator, full curve, poor fit].
With O=C(CC1C(=O)NCCN1Cc1cccc(F)c1)NC1CCCCC1 (stereo unspecified) the lipid storage change, negative = inhibition was “inactive”.
For Cc1cccc(NCc2ccc(N(C)C)cc2)n1, the lipid storage change, negative = inhibition was inconclusive: 14.6%.
With O=c1cc(C(F)(F)F)nc(SCc2cccnc2)[nH]1 the Potency was inconclusive: 23.1 µM [falling, single point].
In the case of Clc1ccc(COn2ccnc2)cc1Cl, the lipid storage change, negative = inhibition is reported as inconclusive: 2.86%.
In the case of O=C(CCCN1C(=O)/C(=C/c2cccs2)SC1=S)Nc1cccc(O)c1, the lipid storage change, negative = inhibition is reported as inconclusive: 71.1%.
With CC1c2cc3c(cc2CCN1C(=O)c1cccc(Cl)c1)OCCCO3 (stereo unspecified) the Potency was inconclusive: 29.1 µM [cytotoxic, single point].
With O=c1[nH]c(C2CCCN(S(=O)(=O)c3ccc(F)cc3)C2)nc2c1nnn2Cc1ccccc1 (stereo unspecified) the lipid storage change, negative = inhibition was inconclusive: 115%.
For CCCCC(CC)Cn1c(O)c(/C=C2\C=NN=C2c2ccccc2)sc1=S (stereo unspecified), the lipid storage change, negative = inhibition was inconclusive: -1.56%.
With N#Cc1cccc(NC(=O)N2CCC(c3nc4c(nnn4Cc4cccc(Cl)c4)c(=O)[nH]3)CC2)c1 the lipid storage change, negative = inhibition was inconclusive: -30.6%.
With Cc1ccc(-n2c(C)cc(C(=O)COC(=O)c3ccc[nH]c3=O)c2C)cc1C the lipid storage change, negative = inhibition was “inactive”.
With S=C(NCCCc1ccccc1)NCc1ccccc1 the Potency was inconclusive: 6.51 µM [activator, single point].
In the case of COC(=O)c1ccc(N2NC(=O)/C(=C/c3cc(OC)c(O)c(OC)c3)C2=O)cc1, the lipid storage change, negative = inhibition is reported as inconclusive: -105%.
For CC(=O)Nc1ccccc1OCC(O)CS(=O)(=O)c1ccc(C(F)(F)F)cn1 (stereo unspecified), the Potency was inconclusive: 4.11 µM [rising, full curve].
In the case of CCCN1CCC(=O)N([C@H](CO)Cc2ccccc2)CC1, the lipid storage change, negative = inhibition is reported as inconclusive: 1.74%.
